From US10383848B2, “Indole-based therapeutics” (Creighton University, priority 2016, dated 2019)
Some entries share one result that the patent states for a list of compounds.

What was measured:
M. abscessus 103 = assay: MIC/MBC by microbroth dilution (MH or 7H9 broth); format: cell-based, M. abscessus subsp. bolletii
M. abscessus 1513 = assay: MIC/MBC by microbroth dilution (MH or 7H9 broth); format: cell-based, M. abscessus subsp. abscessus

SMILES: NCC[C@H](O)C(=O)N[C@@H]1C[C@H](N)[C@@H](O[C@H]2O[C@H](CN)[C@@H](O)[C@H](O)[C@H]2O)[C@H](O)[C@H]1O[C@H]1O[C@H](CO)[C@@H](O)[C@H](N)[C@H]1O [amikacin, reference compound]
- MBC99 M. abscessus subsp. bolletii 103 (M. abscessus 103): > 64 µg/mL
- MBC99 M. abscessus subsp. abscessus 1513 (M. abscessus 1513): > 64 µg/mL

SMILES: CC[C@H]1OC(=O)[C@H](C)[C@@H](O[C@H]2C[C@@](C)(OC)[C@@H](O)[C@H](C)O2)[C@H](C)[C@@H](O[C@@H]2O[C@H](C)C[C@H](N(C)C)[C@H]2O)[C@](C)(OC)C[C@@H](C)C(=O)[C@H](C)[C@@H](O)[C@]1(C)O [clarithromycin, reference compound]
- MBC99 M. abscessus subsp. bolletii 103 (M. abscessus 103): > 64 µg/mL
- MBC99 M. abscessus subsp. abscessus 1513 (M. abscessus 1513): > 64 µg/mL
